These are yes or no findings as the source states them, for the method shown. In cells and extracts the contact can be indirect. These calls come from enrichment with a bait or labelling near it, and not all partners need be listed. Values belong to the binder of their own block, whether it stands above or below them.
Molecular target: T1, TAP-Csm4 (budding yeast (SK1 background)) (UniProt Q08955)
T1 sequence: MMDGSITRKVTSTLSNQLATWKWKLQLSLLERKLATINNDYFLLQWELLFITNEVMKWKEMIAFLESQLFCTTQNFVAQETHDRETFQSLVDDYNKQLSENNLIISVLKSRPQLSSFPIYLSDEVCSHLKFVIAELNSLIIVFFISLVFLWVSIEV
Assay: affinity purification with mass spectrometry; TAP-Csm4 purified from lysate of yeast cells 6 h in synchronous meiosis on Dynabeads cross-linked with rabbit IgG; eluate digested by trypsin, LTQ Orbitrap Velos

binding: binds
B1: Get3 (protein, UniProt Q12154 1-354)
chain: MDLTVEPNLHSLITSTTHKWIFVGGKGGVGKTTSSCSIAIQMALSQPNKQFLLISTDPAHNLSDAFGEKFGKDARKVTGMNNLSCMEIDPSAALKDMNDMAVSRANNNGSDGQGDDLGSLLQGGALADLTGSIPGIDEALSFMEVMKHIKRQEQGEGETFDTVIFDTAPTGHTLRFLQLPNTLSKLLEKFGEITNKLGPMLNSFMGAGNVDISGKLNELKANVETIRQQFTDPDLTTFVCVCISEFLSLYETERLIQELISYDMDVNSIIVNQLLFAENDQEHNCKRCQARWKMQKKYLDQIDELYEDFHVVKMPLCAGEIRGLNNLTKFSQFLNKEYNPITDGKVIYELEDKE

binding: binds
B2: Mps2 (protein, UniProt P53159 1-387)
chain: MSNGAFDAIFEYAWGQIDKPISGDFIYGKDLPKLIEIIENIFQKAQKSGSYELRLPLFSEINKDLFRTFSNTKTFFKIHKEEFDDIFFNLVNHPLREILENAFIGVDSIPSDFIVSMNLNSPSKFLVENKNKNTEGAGISTPRKKLTESPIKLLSRNNIGKALEVQVEELKRELTAKQSLLQENERQVSELKIRLETYQEKYASIQQRFSDLQKARQVEDNQNSSRTSDPGSPLVTGIDQKAILEEFRRRLQRQTDTISFLKDQIRRERGLNCSNDKVSHSKRKHATTDGDGTFKNFISAVPSNIWVKATIRIIVCFALLAGVLPYIRKYVYAHDTPSQNSRLQLSWWENSGILSKIVWFFEDQTDLETEYRSNANVDDAYSRVFGI
